pEC50: −log10 of the molar value.
Key:
Test in all cases: Cell viability assay (Cell Titer-Glo), BaF3 cells expressing FLT3
Assay type in all cases: cell-based
Settings in all cases: Mus musculus
BaF-FLT3(WT) = test system: BaF-FLT3(WT)
BaF-FLT3-ITD = test system: BaF-FLT3-ITD
BaF-FLT3(D835Y) = test system: BaF-FLT3(D835Y)

SMILES: CO[C@@H]1[C@H](N(C)C(=O)c2ccccc2)C[C@H]2O[C@]1(C)n1c3ccccc3c3c4c(c5c6ccccc6n2c5c31)C(=O)NC4 [Midostaurin]
- pEC50 (BaF-FLT3(WT)): 7.64
- pEC50 (BaF-FLT3-ITD): 8.26
- pEC50 (BaF-FLT3(D835Y)): 8.27

— patent US12447171B2, “Azacitidine in combination with venetoclax, gilteritinib, midostaurin or other compounds for treating leukemia or myelodysplastic syndrome” (CELGENE QUANTICEL RESEARCH, INC., priority 2019, dated 2025)
